# In the supplement of paper PMC10849652:
# The chains behind the UniProt entries cited, without tags or fusion partners. Where a name states a change or a piece, a line headed by the entry shows the natural chain unless it says otherwise.
# UniProt Q7L099: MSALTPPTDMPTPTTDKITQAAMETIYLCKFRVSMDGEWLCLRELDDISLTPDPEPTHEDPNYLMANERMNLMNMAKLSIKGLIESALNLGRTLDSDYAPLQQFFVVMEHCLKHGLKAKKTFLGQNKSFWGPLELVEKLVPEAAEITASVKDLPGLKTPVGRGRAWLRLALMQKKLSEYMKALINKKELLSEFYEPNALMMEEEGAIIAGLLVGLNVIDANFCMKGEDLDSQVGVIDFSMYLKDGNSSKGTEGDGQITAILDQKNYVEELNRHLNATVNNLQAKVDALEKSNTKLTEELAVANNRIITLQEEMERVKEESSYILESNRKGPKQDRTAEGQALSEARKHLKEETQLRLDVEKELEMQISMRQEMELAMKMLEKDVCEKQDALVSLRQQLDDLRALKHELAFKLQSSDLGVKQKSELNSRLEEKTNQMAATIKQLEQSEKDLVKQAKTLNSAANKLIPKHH
# UniProt Q96S38: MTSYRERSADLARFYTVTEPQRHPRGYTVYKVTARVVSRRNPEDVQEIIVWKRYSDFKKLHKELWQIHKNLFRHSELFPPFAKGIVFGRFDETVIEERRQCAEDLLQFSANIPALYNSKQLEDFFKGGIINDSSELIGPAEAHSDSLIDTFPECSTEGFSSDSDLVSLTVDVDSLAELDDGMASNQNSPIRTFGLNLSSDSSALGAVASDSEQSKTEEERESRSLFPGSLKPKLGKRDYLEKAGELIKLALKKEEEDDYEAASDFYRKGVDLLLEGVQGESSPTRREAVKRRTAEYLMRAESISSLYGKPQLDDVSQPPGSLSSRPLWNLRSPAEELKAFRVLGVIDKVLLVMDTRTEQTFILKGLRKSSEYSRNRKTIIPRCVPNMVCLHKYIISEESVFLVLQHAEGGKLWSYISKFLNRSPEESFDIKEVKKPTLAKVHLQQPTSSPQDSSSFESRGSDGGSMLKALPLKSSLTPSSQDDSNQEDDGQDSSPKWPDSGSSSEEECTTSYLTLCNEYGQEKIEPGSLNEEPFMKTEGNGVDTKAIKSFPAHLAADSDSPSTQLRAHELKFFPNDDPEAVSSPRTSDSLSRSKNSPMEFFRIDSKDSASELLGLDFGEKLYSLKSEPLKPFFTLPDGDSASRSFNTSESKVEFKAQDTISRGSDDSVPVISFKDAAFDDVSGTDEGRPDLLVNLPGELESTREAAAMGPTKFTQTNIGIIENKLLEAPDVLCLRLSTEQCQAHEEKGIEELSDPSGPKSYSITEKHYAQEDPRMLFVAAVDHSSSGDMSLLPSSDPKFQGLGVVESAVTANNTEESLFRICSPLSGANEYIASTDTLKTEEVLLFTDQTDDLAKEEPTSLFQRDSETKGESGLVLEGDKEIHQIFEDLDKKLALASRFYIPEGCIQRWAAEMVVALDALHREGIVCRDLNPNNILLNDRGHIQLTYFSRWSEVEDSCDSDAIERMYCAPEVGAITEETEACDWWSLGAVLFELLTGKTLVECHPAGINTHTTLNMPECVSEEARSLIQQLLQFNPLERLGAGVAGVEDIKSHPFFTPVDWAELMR
# UniProt O43159: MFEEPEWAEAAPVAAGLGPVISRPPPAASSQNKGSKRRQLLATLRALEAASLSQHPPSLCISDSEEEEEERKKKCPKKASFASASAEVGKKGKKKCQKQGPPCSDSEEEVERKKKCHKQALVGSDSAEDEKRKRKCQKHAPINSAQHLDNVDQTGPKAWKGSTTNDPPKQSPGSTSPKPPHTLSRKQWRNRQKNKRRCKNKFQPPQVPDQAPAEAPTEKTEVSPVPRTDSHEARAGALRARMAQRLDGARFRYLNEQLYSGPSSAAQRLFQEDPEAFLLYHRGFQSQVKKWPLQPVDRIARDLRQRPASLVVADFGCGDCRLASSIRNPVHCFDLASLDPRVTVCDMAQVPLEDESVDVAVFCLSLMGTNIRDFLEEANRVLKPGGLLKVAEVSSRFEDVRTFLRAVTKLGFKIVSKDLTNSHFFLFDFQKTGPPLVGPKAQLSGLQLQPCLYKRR
# UniProt Q99584: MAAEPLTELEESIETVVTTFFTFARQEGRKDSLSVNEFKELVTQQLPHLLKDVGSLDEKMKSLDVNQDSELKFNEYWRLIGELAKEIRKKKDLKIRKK
# UniProt Q9Y230, whole entry, looked up: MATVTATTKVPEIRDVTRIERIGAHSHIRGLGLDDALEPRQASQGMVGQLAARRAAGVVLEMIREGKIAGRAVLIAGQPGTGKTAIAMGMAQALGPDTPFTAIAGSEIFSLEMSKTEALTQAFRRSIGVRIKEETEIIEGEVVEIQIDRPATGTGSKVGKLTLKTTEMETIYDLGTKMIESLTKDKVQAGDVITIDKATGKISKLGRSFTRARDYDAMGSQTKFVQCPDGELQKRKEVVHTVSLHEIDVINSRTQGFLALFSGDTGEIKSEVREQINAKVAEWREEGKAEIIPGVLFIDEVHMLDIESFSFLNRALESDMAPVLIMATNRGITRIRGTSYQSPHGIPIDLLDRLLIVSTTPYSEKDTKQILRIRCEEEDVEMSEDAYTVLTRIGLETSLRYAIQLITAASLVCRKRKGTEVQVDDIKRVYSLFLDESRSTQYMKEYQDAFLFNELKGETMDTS
# UniProt Q9H446: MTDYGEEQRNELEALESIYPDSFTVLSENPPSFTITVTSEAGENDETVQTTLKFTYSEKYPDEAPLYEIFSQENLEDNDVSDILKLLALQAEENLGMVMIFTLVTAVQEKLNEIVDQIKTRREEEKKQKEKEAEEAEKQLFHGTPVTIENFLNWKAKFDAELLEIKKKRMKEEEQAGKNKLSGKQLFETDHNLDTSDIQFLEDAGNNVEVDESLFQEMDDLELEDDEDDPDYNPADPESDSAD
# UniProt P78346: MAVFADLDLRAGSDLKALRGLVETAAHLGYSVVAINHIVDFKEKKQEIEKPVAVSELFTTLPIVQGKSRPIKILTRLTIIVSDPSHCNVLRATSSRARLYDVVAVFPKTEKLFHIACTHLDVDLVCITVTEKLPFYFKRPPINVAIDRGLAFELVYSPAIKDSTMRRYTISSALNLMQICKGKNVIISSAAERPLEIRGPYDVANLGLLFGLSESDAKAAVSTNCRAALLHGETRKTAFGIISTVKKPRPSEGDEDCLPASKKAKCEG
# UniProt O43818: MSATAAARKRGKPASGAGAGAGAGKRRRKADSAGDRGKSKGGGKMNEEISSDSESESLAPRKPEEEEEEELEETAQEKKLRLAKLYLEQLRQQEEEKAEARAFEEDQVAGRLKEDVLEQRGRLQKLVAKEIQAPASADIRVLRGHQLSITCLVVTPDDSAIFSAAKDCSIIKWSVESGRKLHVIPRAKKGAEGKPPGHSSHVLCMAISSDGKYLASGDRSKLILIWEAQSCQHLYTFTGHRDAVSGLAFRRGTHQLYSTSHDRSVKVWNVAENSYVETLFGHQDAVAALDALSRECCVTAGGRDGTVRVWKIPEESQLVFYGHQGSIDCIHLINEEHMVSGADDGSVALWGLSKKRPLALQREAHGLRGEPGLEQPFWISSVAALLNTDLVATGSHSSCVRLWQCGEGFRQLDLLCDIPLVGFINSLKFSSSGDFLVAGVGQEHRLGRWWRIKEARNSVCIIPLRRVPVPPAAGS
# UniProt Q9BY42: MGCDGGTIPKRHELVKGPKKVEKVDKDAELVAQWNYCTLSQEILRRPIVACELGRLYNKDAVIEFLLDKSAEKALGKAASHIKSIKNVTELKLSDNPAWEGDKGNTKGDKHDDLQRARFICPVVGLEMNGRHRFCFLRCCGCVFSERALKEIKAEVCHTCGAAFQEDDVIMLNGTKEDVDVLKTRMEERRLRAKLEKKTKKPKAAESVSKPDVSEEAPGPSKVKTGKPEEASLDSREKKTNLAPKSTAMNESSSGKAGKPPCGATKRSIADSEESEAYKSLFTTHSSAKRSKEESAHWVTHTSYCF
# UniProt Q96DX4: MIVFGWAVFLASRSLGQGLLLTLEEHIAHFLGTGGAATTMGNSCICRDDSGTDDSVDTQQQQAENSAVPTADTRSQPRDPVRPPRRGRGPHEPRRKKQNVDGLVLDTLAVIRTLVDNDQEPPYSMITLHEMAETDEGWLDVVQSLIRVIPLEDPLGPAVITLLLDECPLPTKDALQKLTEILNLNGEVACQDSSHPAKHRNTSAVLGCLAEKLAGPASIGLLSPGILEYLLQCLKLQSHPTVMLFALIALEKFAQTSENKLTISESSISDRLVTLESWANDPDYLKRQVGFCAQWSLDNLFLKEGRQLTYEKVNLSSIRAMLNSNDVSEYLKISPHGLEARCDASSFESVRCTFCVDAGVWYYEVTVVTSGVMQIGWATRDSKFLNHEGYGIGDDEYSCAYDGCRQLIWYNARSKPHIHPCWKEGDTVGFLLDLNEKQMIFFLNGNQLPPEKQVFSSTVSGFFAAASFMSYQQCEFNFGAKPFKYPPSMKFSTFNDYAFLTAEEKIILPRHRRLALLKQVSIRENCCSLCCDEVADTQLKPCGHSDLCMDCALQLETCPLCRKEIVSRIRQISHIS
# UniProt Q5VWQ0: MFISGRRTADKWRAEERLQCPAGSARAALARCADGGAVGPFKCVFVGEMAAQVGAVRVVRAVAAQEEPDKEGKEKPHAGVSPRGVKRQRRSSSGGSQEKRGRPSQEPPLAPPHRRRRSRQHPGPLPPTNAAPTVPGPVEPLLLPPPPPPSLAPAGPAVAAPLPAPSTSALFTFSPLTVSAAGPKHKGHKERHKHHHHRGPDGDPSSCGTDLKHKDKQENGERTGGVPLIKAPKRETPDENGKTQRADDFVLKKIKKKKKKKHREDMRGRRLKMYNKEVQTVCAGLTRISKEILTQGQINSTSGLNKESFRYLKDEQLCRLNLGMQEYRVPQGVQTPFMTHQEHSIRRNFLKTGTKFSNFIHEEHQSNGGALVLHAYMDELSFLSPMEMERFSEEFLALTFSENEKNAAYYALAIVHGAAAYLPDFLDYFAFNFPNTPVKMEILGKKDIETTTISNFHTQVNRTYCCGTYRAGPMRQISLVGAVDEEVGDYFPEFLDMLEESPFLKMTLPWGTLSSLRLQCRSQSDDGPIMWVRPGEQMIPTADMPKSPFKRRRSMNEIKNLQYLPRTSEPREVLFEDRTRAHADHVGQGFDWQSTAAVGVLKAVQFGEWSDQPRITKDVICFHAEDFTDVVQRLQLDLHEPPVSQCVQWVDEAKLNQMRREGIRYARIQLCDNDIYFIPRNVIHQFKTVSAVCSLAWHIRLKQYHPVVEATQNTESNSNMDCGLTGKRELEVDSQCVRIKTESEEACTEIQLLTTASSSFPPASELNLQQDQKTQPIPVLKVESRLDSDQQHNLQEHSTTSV
# The other results are listed elsewhere or left out.
# How the values were obtained:
# Assay in all cases: log2 fold change, soluble protein after heating vs DMSO (PISA); higher = thermal stabilisation; K562 lysate, 10 uM; active = over 0.2 and 3.5 SD of the protein, either way, in both replicates (recomputed)
# [1] = compound: C=CC(=O)N1CCC[C@@H](n2nc(-c3ccc(Oc4ccccc4)cc3)c3c(N)ncnc32)C1 [ibrutinib]
# In short: (§1)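 Soluble protein was defined as the supernatant remaining after 21,000xg for 90 min, following pooling of heated aliquots and adjustment to 0.5% NP-40 at 4°C. Before that, crude K562 extract at 1 mg/mL protein in PBS pH 7.4 with 1 mM MgCl2 was treated with 10 μM compound for 30 min and heated for 3 min across 48°C-58°C. Quantification used TMTpro 16plex LC-MS/MS with channel sums equalised, and values are log-two fold changes in thermal stability relative to solvent controls from duplicates.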
# [2] = compound: CC(=O)c1cnc2ccc(-c3cc(Cl)c(O)c(Cl)c3)nc2c1N[C@H]1CC[C@H](CN(C)C)CC1
# In short: as §1
# [3] = compound: CC(C)(C)Cn1c(N)nc2ccc(-c3[nH]c(C(C)(C)C)nc3-c3ccc(F)cc3)nc21 [ralimetinib]
# In short: as §1
# [4] = compound: CC(C)(O)CC(=O)NCCn1ccc2ncnc(Nc3ccc(Oc4cccc(C(F)(F)F)c4)c(Cl)c3)c21
# In short: as §1
# [5] = compound: CC(C)C1=C2N=C(C=C(N2N=C1)NCC3=CC=CC=C3)NCCCCCCN
# In short: as §1
# [6] = compound: CC1=C(C(CC(=O)N1)C2=CC=C(C=C2)C(F)(F)F)C(=O)NC3=C(C=C4C(=C3)C=NN4)F
# In short: as §1
# [7] = compound: CC1=C(C2=C(C=C1)C(=O)C3=CC=CC=C3N2CCCN)C
# In short: as §1
# [8] = compound: CC1=C(C=C(C=C1)NC(=O)C2=CC(=CC=C2)C(C)(C)C#N)NC3=CC4=C(C=C3)N=CN(C4=O)C
# In short: as §1
# [9] = compound: CC1=C(C=C(C=C1)NC(=O)C2=CC(=CC=C2)N(C)C)NC(=O)C3=CC=C(C=C3)O
# In short: as §1
# [10] = compound: CC1=CC=C(C=C1)SC2=C3C=C(SC3=CN=C2)C(=O)N
# In short: as §1
# [11] = compound: CCCS(=O)(=O)Nc1ccc(F)c(C(=O)c2c[nH]c3ncc(-c4ccc(Cl)cc4)cc23)c1F [vemurafenib]
# In short: as §1
# [12] = compound: CCCS(=O)(=O)Nc1ccc(F)c(C(=O)c2c[nH]c3ncc(Cl)cc23)c1F
# In short: as §1
# [13] = compound: CCN(CCCOc1ccc2c(Nc3cc(CC(=O)Nc4cccc(F)c4)[nH]n3)ncnc2c1)CCOP(=O)(O)O [barasertib]
# In short: as §1
# [14] = compound: CC[C@@H]1C(=O)N(C)c2cnc(Nc3ccc(C(=O)NC4CCN(C)CC4)cc3OC)nc2N1C1CCCC1
# In short: as §1
# [15] = compound: CC[C@@H]1C(=O)N(C)c2cnc(Nc3ccc(C(=O)N[C@H]4CC[C@H](N5CCN(CC6CC6)CC5)CC4)cc3OC)nc2N1C(C)C [volasertib]
# In short: as §1
# [16] = compound: CCn1c(C(=O)N(C2CC2)C2CC2)cc2c3c(ncn3C)c(Nc3cc(C)n(C)n3)nc21
# In short: as §1
# [17] = compound: CCn1cc(-c2ccnc3[nH]c(-c4cccc(CN(C)C)c4)cc23)c(-c2ccc(NC(=O)N(C)C)cc2)n1
# In short: as §1
# [18] = compound: CN1CCC(CNc2ccc3ncc(-c4cccc(OC(F)(F)F)c4)n3n2)CC1
# In short: as §1
# [19] = compound: CN1CCN(CCOc2cc(OC3CCOCC3)c3c(Nc4c(Cl)ccc5c4OCO5)ncnc3c2)CC1 [saracatinib]
# In short: as §1
# [20] = compound: CN1CCN(c2nc(C3=C(c4c[nH]c5ccccc45)C(=O)NC3=O)c3ccccc3n2)CC1 [sotrastaurin]
# In short: as §1
Target,log2 fold change [1],log2 fold change [2],log2 fold change [3],log2 fold change [4],log2 fold change [5],log2 fold change [6],log2 fold change [7],log2 fold change [8],log2 fold change [9],log2 fold change [10],log2 fold change [11],log2 fold change [12],log2 fold change [13],log2 fold change [14],log2 fold change [15],log2 fold change [16],log2 fold change [17],log2 fold change [18],log2 fold change [19],log2 fold change [20]
RUFY3 isoform 3 (UniProt Q7L099),inactive: 0.016,inactive: 0.008,inactive: 0.019,inactive: -0.054,inactive: 0.003,inactive: -0.009,inactive: 0.006,inactive: 0.003,inactive: -0.002,inactive: -0.034,inactive: -0.021,inactive: 0.014,inactive: 0.005,inactive: 0.028,inactive: -0.012,inactive: -0.01,inactive: -0.011,inactive: 0.014,inactive: -0.008,inactive: 0.005
RPS6KC1 (UniProt Q96S38),inactive: 0.015,inactive: 0.046,inactive: 0.008,inactive: -0.019,inactive: -0.006,inactive: -0.047,inactive: -0.029,inactive: 0.007,inactive: 0.049,inactive: -0.001,inactive: -0.037,inactive: 0.033,inactive: 0.014,inactive: 0.051,inactive: -0.022,inactive: -0.032,inactive: -0.014,inactive: -0.078,inactive: 0.011,inactive: 0.026
RRP8 (UniProt O43159),inactive: -0.003,inactive: 0.01,inactive: 0.024,inactive: -0.011,inactive: 0.066,inactive: -0.079,inactive: 0.019,inactive: 0.071,inactive: 0.03,inactive: 0.051,inactive: -0.016,inactive: -0.001,inactive: 0.002,inactive: 0.072,inactive: -0.071,inactive: 0.002,inactive: -0.038,inactive: 0.147,inactive: 0.012,inactive: -0.025
RPL5 (UniProt P46777),inactive: -0.021,inactive: 0.004,inactive: 0.003,inactive: -0.024,inactive: 0.009,inactive: -0.013,inactive: -0.1,inactive: -0.003,inactive: -0.005,inactive: 0.041,inactive: -0.056,inactive: 0.008,inactive: -0.026,inactive: 0.028,inactive: -0.008,inactive: -0.014,inactive: 0.064,inactive: -0.065,inactive: -0.004,inactive: 0.011
RPL4 (UniProt P36578),inactive: -0.015,inactive: 0.014,inactive: -0.019,inactive: 0.007,inactive: -0.008,inactive: -0.023,inactive: 0.001,inactive: -0.03,inactive: 0.002,inactive: 0.033,inactive: -0.017,inactive: 0.003,inactive: -0.074,inactive: 0.019,inactive: -0.005,inactive: 0.002,inactive: 0.145,inactive: -0.016,inactive: -0.008,inactive: 0.012
RPL37A (UniProt P61513),inactive: -0.005,inactive: 0.002,inactive: -0.041,inactive: 0.03,inactive: -0.009,inactive: -0.021,inactive: -0.032,inactive: 0.038,inactive: 0.004,inactive: 0.051,inactive: 0.003,inactive: -0.002,inactive: -0.013,inactive: -0.01,inactive: -0.015,inactive: -0.044,active: 0.371,inactive: -0.158,inactive: -0.035,inactive: -0.138
S100A13 (UniProt Q99584),inactive: 0.04,inactive: 0.026,inactive: -0.005,inactive: 0.014,inactive: 0.034,inactive: -0.025,inactive: 0.015,inactive: -0.042,inactive: -0.015,inactive: -0.01,inactive: -0.001,inactive: -0.03,inactive: 0.056,inactive: 0.038,inactive: 0.04,inactive: -0.013,inactive: 0.16,inactive: 0.041,inactive: 0.031,inactive: 0.014
RUVBL2 (UniProt Q9Y230),inactive: 0.005,inactive: -0.013,inactive: -0.013,inactive: -0.022,inactive: -0.013,inactive: -0.034,inactive: 0.003,inactive: 0.017,inactive: -0.009,inactive: 0.015,inactive: 0.018,inactive: 0.009,inactive: -0.018,inactive: 0.002,inactive: 0.001,inactive: -0.002,inactive: 0.004,inactive: 0.017,inactive: -0.021,inactive: -0.007
RWDD1 (UniProt Q9H446),inactive: 0.013,inactive: 0.001,inactive: 0.011,inactive: -0.023,inactive: -0.036,inactive: 0.013,inactive: -0.015,inactive: -0.041,inactive: -0.042,inactive: -0.011,inactive: -0.045,inactive: 0,inactive: 0.032,inactive: 0.016,inactive: 0.009,inactive: -0.008,inactive: 0.08,inactive: -0.071,inactive: -0.002,inactive: -0.051
RPP30 isoform 2 (UniProt P78346),inactive: 0.013,inactive: -0.003,inactive: 0.018,inactive: -0.056,inactive: -0.022,inactive: 0.004,inactive: -0.011,inactive: -0.015,inactive: 0.002,inactive: -0.01,inactive: 0.016,inactive: -0.003,inactive: 0.001,inactive: 0.016,inactive: 0.015,inactive: -0.001,inactive: -0.004,inactive: 0.03,inactive: 0,inactive: -0.022
RRP9 (UniProt O43818),inactive: -0.035,inactive: -0.007,inactive: -0.017,inactive: -0.065,inactive: 0.002,inactive: -0.007,inactive: -0.02,inactive: 0.002,inactive: -0.013,inactive: -0.027,inactive: -0.052,inactive: 0.042,inactive: -0.038,inactive: -0.114,inactive: 0.03,inactive: 0.029,inactive: -0.111,inactive: 0.098,inactive: 0.069,inactive: 0.019
RTF2 (UniProt Q9BY42),inactive: 0.074,inactive: 0.004,inactive: 0.003,inactive: 0.017,inactive: -0.023,inactive: 0.014,inactive: -0.024,inactive: 0.052,inactive: -0.005,inactive: -0.062,inactive: 0.01,inactive: 0.039,inactive: 0.027,inactive: 0.047,inactive: -0.08,inactive: -0.016,inactive: 0.044,inactive: 0,inactive: -0.004,inactive: 0.053
RSPRY1 (UniProt Q96DX4),inactive: -0.052,inactive: 0.005,inactive: 0.029,inactive: -0.036,inactive: 0.042,inactive: 0.118,inactive: -0.022,inactive: 0.012,inactive: -0.017,inactive: 0.009,inactive: 0.007,inactive: 0.03,inactive: -0.022,inactive: -0.031,inactive: -0.001,inactive: -0.002,inactive: -0.077,inactive: 0.079,inactive: 0,inactive: 0.016
RPS6 (UniProt P62753),inactive: -0.039,inactive: -0.021,inactive: -0.04,inactive: -0.024,inactive: -0.016,inactive: 0,inactive: -0.063,inactive: -0.022,inactive: 0.003,inactive: 0.023,inactive: 0.006,inactive: -0.027,inactive: -0.008,inactive: 0.021,inactive: 0.01,inactive: -0.047,inactive: -0.126,inactive: 0.022,inactive: -0.002,inactive: 0.018
RSBN1 (UniProt Q5VWQ0),inactive: -0.016,inactive: -0.01,inactive: 0.055,inactive: -0.014,inactive: 0,inactive: -0.036,inactive: -0.017,inactive: 0.043,inactive: 0.002,inactive: 0.026,inactive: 0.15,inactive: 0.161,inactive: 0.002,inactive: 0.026,inactive: 0.02,inactive: -0.047,inactive: 0,inactive: 0.03,inactive: 0.006,inactive: -0.034
RPS7 (UniProt P62081),inactive: 0.01,inactive: 0,inactive: -0.055,inactive: -0.003,inactive: 0.035,inactive: -0.009,inactive: -0.109,inactive: -0.036,inactive: 0.019,inactive: 0.018,inactive: -0.031,inactive: -0.005,inactive: -0.039,inactive: 0.026,inactive: -0.028,inactive: -0.025,inactive: 0.295,inactive: -0.145,inactive: -0.003,inactive: -0.014
